Experimental data from PMC13546301.
Results are given in words; binding and its absence hold for the method and conditions named. Binding seen in cells or lysates may run through a third protein. Here binding means that the protein was enriched with, or labelled near, the bait; the list need not be complete.

Protein sequences, listed by entry. Tags and fused reporters are not part of them. Lines headed by an entry give the natural chain unless they say otherwise; changes in a name come on top. Residues count along the entry.
UniProt P61215: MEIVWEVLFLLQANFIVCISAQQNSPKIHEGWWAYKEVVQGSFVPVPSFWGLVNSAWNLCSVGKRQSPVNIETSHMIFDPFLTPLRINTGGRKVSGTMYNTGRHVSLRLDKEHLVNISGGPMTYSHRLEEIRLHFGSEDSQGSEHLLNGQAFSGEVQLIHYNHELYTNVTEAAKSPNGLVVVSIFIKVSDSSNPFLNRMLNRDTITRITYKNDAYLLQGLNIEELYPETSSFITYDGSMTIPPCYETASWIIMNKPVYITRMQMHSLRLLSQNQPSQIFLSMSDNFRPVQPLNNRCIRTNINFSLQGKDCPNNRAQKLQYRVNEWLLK
UniProt B0V2N1, residues 30-1907: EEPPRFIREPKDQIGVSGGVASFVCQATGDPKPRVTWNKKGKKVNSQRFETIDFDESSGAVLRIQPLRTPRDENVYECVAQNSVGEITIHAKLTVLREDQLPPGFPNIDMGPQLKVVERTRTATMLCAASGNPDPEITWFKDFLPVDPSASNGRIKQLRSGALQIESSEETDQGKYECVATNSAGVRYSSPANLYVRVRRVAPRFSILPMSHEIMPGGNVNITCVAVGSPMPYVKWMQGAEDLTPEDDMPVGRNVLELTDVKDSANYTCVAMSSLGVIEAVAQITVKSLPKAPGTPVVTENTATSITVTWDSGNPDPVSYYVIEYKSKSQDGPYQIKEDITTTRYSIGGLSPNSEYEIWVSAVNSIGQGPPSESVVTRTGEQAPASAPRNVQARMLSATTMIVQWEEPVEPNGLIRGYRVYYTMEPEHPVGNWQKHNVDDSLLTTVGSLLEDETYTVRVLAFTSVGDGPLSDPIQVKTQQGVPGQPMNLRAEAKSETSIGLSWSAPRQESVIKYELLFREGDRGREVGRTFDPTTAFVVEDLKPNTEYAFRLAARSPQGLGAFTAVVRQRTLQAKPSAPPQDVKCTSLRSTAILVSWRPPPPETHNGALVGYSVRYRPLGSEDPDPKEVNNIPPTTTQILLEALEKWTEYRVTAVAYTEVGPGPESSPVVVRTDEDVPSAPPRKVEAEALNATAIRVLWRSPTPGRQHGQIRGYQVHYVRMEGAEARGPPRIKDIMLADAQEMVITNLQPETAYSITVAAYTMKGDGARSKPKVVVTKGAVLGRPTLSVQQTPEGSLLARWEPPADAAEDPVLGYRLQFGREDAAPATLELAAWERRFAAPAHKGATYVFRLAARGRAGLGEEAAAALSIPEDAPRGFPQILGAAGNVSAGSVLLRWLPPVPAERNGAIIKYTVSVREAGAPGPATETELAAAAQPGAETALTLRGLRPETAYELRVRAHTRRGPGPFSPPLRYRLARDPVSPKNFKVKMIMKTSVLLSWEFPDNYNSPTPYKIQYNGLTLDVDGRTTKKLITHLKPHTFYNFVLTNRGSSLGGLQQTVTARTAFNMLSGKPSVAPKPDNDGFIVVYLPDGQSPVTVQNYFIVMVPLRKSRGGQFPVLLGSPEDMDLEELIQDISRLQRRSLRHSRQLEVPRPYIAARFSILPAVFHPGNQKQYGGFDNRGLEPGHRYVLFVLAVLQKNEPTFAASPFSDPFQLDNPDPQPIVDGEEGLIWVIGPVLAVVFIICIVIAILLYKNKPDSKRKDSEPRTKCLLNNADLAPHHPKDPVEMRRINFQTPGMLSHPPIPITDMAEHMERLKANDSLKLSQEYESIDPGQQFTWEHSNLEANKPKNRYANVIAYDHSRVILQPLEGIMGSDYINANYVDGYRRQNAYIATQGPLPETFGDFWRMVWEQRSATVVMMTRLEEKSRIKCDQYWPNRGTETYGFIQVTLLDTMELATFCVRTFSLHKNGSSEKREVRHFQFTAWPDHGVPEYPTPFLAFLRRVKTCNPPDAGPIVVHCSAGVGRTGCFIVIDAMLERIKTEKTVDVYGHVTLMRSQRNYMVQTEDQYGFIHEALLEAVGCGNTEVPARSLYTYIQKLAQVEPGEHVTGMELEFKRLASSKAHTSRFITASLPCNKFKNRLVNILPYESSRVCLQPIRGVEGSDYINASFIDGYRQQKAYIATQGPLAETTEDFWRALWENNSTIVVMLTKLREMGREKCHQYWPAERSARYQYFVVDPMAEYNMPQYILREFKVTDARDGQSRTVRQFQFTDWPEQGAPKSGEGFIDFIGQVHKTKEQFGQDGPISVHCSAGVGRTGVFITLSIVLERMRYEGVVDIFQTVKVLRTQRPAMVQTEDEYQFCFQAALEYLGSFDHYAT

B1: Leucine-rich repeat transmembrane neuronal protein 1 (protein, UniProt Q8K377 35-522)
chain: APSGCPGQCRCEGRLLYCEALNLTEAPHNLSGLLGLSLRYNSLSELRAGQFTGLMQLTWLYLDHNHICSVQGDAFQKLRRVKELTLSSNQITELANTTFRPMPNLRSVDLSYNKLQALAPDLFHGLRKLTTLHMRANAIQFVPVRIFQDCRSLKFLDIGYNQLKSLARNSFAGLFKLTELHLEHNDLIKVNFAHFPRLISLHSLCLRRNKVAIVVSSLDWVWNLEKMDLSGNEIEYMEPHVFETVPYLQTLQLDSNRLTYIEPRILNSWKSLTSITLAGNLWDCGRNVCALASWLSNFQGRYDANLQCASPEYAQGEDVLDAVYAFHLCEDGAEPTSGHLLSVAVTNRSDLTPPESSATTLVDGGEGHDGTFEPITVALPGGEHAENAVQIHKVVTGTMALIFSFLIVVLVLYVSWKCFPASLRQLRQCFVTQRRKQKQKQTMHQMAAMSAQEYYVDYKPNHIEGALVIINEYGSCTCHQQPARECEV
B2: SHSA7 (protein, UniProt Q8C3Q5 23-558)
chain: RPSNDTSSVAPGPLPALLAHLRRLTGALAGGGSAAGTSANATKTSPASGTGAAARAPPPAELCHGYYDVMGQYDATFNCSTGSYRFCCGTCHYRFCCEHRHMRLAQASCSNYDTPRWATTPPPLAGGAGGAGGAGGGPGPGQAGWLEGGRAGGAGGRGGEGPGGSTAYVVCGVISFALAVGVGAKVAFSKASRAPRAHREINVPRALVDILRHQAGPATRPDRARSSSLTPGLGGPDSMAPRTPKNLYNTMKPSNLDNLHYNVNSPKHHAATLDWRAMPPPSPSLHYSTLSCSRSFHNLSHLPPSYEAAVKSELNRYSSLKRLAEKDLDEAYLKRRQLEMPRGTLPLHALRRPGTGGGYRMDGWGGPEELGLAPAPNPRRVMSQEHLLGDGSRASRYEFTLPRARLVSQEHLLLSSPEALRQSREHLLSPPRSPALPPDPTTRASLAASHSNLLLGPGGPPTPLHGLPPSGLHAHHHHALHGSPQPAWMSDAGGGGGTLARRPPFQRQGTLEQLQFIPGHHLPQHLRTASKNEVTV
B3: NOE3 (protein, UniProt P63056 24-478)
chain: QTLPSLVGLNTTRLSAPDTLTQISPKEGWQVYSSAQDPDGRCICTVVAPEQNLCSRDAKSRQLRQLLEKVQNMSQSIEVLNLRTQRDFQYVLKMETQMKGLKAKFRQIEDDRKTLMTKHFQELKEKMDELLPLIPVLEQYKTDAKLITQFKEEIRNLSSVLTGIQEEIGAYDYEELHQRVLSLETRLRDCMKKLTCGKLMKITGPITVKTSGTRFGAWMTDPLASEKNNRVWYMDSYTNNKIVREYKSIADFVSGAESRTYNLPFKWAGTNHVVYNGSLYFNKYQSNIIIKYSFDLGRVLAQRSLEYAGFHNVYPYTWGGFSDIDLMADEIGLWAVYATNQNAGNIVISQLNQDTLEVMKSWSTGYPKRSAGESFMICGTLYVTNSHLTGAKVYYSYSTKTSTYEYTDIPFHNQYFHISMLDYNARDRALYAWNNGHQVLFNVTLFHIIKTEDDT

Legend:
[1] = target: Carbonic anhydrase-related protein 10 (mouse (endogenous in mouse brain)) (UniProt P61215); assay: affinity purification with mass spectrometry; reverse meAP-MS with 1-4 antibodies per target against constituents of the NRX interactome (PTPRS, T178B, CAH10, NXPH3, TAFA1, LRRT4, anti-HA for HA-Cbln1/2 and others); solubilised mouse brain membrane fractions; target knock-outs, wild-type brains or IgGs as controls, tnR threshold 0.25
[2] = target: Receptor-type tyrosine-protein phosphatase S (mouse (endogenous in mouse brain)) (UniProt B0V2N1); assay: as above

Binder	binding [1]	binding [2]
B1	binds	binds
B2	binds	binds
B3	binds	binds
